Assay results published in PMC5570908.
Results are given in words; binding and its absence hold for the method and conditions named. In cells and extracts the contact can be indirect. Some entries that bind do so weakly or less than the wild type.

Sequences of proteins named here, by UniProt entry; tags and fusion partners are left off.
UniProt P84022: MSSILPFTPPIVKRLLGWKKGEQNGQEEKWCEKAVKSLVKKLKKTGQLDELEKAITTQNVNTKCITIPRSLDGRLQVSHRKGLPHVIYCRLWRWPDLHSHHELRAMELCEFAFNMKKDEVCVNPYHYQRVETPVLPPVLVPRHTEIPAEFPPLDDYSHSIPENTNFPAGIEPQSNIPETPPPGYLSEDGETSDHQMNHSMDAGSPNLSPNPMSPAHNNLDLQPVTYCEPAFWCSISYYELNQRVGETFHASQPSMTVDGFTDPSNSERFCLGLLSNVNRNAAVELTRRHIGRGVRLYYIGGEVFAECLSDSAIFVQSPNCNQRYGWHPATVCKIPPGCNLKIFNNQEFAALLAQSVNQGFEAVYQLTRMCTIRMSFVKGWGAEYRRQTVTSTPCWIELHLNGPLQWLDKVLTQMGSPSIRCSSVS
UniProt Q9HAU4: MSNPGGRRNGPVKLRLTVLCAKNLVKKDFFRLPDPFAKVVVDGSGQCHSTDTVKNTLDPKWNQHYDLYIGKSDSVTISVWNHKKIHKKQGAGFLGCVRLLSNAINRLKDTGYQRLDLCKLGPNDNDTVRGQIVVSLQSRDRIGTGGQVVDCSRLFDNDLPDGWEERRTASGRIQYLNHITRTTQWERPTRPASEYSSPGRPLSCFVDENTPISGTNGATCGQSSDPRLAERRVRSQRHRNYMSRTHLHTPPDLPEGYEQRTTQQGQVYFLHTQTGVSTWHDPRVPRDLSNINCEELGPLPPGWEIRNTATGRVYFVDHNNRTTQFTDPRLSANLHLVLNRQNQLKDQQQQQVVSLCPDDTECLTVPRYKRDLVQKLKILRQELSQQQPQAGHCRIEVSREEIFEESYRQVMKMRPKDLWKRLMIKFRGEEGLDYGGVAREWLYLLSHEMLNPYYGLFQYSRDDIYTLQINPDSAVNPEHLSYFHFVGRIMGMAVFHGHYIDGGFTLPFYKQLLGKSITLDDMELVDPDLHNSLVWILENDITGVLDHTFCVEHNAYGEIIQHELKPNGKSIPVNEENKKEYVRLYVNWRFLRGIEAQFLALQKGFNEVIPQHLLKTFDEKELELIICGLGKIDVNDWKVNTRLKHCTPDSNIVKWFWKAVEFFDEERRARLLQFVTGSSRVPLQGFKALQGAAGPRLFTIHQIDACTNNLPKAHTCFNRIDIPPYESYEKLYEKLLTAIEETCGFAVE

Target: Myc-Smad3 (UniProt P84022)
Assay: co-IP; MDA-MB-231 cells transfected with Flag-Smurf1 and Myc-Smad3; MG132 (20 µM) for 8 h before harvest; HEPES lysis buffer (20 mM HEPES pH 7.2, 50 mM NaCl, 0.5% Triton X-100, 1 mM NaF, 1 mM dithiothreitol); antibody 3 h at 4 °C, protein A/G-plus agarose; western blot (anti-Myc-HRP to detect Smad3)

With “Smurf2 (from UniProt Q9HAU4 1-748) (enzyme)” the binding was “binds”.
